Results: publication PMC5697057
No constants are given. Whether binding was seen depends on the method and setting. Binding seen in cells or lysates may run through a third protein. These calls come from enrichment with a bait or labelling near it, and not all partners need be listed.

Target: T1, cytochrome b6f subunit IV (PetD) of pea (pea (Pisum sativum)) (UniProt P06527)
T1 sequence (chain, [35S]-methionine label): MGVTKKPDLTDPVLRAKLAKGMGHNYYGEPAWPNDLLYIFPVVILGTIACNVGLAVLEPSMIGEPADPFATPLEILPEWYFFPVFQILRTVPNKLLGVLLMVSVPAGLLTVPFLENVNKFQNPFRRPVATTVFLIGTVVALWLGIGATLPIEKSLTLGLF
Assay: cross-linking + affinity purification with mass spectrometry; [35S]PetD translated in vitro and inserted post-translationally in the presence of pea thylakoid membranes and stroma fraction; cross-linked on ice with BSOCOES or SPDP; immunoprecipitated with 2 ug antibody against ALB3 or cpSRP54; bands analysed by Q-TOF MS/MS with peptide mass fingerprints and Mascot Distiller

For ALB3 insertase, which binding is on record?
Its binding is “binds”.
